The M2OR odorant receptor database
The list shows a part of the results, in another mix than the full data. Calls are pooled over several reports, among them a noisy single-well screen. The list shows a part of the results.

Columns and labels:
Conditions in all cases: stereoisomer not certain
OR6B1 = tested on: T1, OR6B1
T1 sequence (whole entry): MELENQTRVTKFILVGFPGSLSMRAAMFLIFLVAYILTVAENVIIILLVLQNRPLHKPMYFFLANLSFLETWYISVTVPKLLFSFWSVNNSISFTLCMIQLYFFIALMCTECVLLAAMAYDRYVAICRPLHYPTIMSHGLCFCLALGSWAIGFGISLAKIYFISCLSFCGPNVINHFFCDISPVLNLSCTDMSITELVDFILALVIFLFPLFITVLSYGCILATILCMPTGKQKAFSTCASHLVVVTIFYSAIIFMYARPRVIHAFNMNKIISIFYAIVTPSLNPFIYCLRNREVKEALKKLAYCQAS
Summary of the method: (§1)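 Assay methods differ from source to source, frequently being transient luciferase assays in mammalian cell lines. For each receptor–molecule pair, the label responsive (active) applies when the original authors judged the measured signal statistically different from baseline, and non-responsive (inactive) applies otherwise.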

OR6B2 = tested on: T2, OR6B2
T2 sequence (whole entry): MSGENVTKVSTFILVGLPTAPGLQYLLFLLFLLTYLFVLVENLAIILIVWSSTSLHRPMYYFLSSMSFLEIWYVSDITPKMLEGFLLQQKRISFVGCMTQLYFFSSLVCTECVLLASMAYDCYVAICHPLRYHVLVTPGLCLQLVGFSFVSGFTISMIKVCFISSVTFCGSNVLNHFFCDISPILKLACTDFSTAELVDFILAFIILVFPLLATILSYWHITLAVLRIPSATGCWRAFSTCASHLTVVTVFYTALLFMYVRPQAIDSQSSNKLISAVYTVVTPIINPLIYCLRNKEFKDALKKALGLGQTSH
Summary of the method: as §1

OR6B3 = tested on: T3, OR6B3
T3 sequence (whole entry): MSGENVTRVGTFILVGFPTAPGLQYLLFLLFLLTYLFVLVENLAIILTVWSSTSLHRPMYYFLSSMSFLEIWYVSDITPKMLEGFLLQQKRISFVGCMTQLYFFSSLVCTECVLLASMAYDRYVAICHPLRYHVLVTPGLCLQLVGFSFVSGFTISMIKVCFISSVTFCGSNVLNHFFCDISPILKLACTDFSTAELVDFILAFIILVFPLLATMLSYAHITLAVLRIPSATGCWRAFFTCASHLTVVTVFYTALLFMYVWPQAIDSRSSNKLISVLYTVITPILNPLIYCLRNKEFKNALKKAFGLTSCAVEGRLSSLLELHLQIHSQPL
Summary of the method: as §1

OR6C1 = tested on: T4, OR6C1
T4 sequence (whole entry): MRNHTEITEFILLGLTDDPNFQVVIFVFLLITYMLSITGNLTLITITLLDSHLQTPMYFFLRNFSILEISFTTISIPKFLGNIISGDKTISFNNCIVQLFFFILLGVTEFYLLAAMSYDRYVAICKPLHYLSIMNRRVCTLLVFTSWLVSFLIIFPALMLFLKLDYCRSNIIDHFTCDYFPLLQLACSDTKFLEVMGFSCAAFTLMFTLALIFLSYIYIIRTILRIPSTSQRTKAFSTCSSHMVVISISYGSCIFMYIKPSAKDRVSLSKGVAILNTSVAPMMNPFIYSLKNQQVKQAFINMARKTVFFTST
Summary of the method: as §1

OR6C2 (Homo sapiens) = biological target: T5, OR6C2 (Homo sapiens) (UniProt Q9NZP2)
T5 sequence (whole entry): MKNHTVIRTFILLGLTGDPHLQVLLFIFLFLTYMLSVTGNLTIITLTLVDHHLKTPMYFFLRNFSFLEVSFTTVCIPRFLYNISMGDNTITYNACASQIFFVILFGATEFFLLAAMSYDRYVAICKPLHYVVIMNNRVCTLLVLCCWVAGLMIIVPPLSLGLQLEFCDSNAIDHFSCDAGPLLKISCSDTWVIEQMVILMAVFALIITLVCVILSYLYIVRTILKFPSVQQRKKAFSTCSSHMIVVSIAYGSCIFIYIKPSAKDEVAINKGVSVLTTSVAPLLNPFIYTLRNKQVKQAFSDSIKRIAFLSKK
Summary of the method: as §1

OR6C3 (Homo sapiens) = biological target: T6, OR6C3 (Homo sapiens) (UniProt Q9NZP0)
T6 sequence (whole entry): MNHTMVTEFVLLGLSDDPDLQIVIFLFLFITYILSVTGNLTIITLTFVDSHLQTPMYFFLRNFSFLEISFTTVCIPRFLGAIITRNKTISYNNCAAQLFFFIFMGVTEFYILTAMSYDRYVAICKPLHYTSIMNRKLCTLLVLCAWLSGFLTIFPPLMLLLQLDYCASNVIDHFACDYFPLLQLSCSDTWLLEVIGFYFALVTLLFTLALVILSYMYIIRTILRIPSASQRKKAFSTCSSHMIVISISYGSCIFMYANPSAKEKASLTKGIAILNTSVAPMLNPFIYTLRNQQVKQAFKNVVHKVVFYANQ
Summary of the method: as §1

OR6C4 = tested on: T7, OR6C4
T7 sequence (whole entry): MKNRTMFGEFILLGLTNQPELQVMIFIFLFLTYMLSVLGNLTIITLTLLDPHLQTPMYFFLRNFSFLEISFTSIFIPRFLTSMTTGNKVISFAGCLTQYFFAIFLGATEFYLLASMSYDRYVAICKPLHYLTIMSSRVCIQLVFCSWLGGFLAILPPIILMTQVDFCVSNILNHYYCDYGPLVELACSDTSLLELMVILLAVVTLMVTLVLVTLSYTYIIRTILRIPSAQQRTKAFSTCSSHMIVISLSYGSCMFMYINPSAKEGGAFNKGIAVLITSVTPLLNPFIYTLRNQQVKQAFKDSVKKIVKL
Summary of the method: as §1

OR6C6 (Homo sapiens) = biological target: T8, OR6C6 (Homo sapiens) (UniProt A6NF89)
T8 sequence (whole entry): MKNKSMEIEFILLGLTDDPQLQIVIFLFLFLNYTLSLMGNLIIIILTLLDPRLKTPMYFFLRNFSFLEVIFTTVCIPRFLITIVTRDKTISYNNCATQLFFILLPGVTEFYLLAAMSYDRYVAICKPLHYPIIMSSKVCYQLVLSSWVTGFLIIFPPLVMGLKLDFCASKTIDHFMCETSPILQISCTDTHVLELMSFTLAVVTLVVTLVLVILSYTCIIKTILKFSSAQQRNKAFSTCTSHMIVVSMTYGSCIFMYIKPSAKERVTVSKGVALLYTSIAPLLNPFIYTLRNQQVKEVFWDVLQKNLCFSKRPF
Summary of the method: as §1

OR6C65 (Homo sapiens) = biological target: T9, OR6C65 (Homo sapiens) (UniProt A6NJZ3)
T9 sequence (whole entry): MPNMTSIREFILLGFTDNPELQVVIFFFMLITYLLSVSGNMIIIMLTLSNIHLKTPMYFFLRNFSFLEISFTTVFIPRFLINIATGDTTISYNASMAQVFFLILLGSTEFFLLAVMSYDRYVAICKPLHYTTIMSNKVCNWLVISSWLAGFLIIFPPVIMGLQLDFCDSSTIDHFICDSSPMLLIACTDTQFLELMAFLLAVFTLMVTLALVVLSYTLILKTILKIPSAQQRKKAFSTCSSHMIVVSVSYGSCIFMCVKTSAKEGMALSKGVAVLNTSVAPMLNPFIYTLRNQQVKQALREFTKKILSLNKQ
Summary of the method: as §1

OR6C74 (Homo sapiens) = biological target: T10, OR6C74 (Homo sapiens) (UniProt A6NCV1)
T10 sequence (whole entry): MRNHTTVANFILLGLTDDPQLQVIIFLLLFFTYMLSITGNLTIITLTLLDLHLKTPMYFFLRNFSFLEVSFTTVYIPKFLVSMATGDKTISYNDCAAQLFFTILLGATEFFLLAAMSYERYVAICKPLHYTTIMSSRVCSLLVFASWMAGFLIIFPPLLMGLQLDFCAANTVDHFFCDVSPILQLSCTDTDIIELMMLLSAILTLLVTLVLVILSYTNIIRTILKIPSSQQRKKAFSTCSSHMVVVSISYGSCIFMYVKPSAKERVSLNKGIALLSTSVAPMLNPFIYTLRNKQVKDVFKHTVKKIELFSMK
Summary of the method: as §1

OR6C75 (Homo sapiens) = biological target: T11, OR6C75 (Homo sapiens) (UniProt A6NL08)
T11 sequence (whole entry): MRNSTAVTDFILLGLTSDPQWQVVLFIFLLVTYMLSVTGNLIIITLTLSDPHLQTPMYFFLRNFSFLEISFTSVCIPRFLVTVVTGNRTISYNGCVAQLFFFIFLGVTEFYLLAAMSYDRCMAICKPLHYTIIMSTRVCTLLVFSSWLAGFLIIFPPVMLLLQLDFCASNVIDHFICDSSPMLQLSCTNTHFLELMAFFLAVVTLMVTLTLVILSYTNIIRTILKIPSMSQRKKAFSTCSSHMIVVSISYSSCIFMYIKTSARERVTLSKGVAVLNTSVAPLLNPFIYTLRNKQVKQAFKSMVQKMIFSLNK
Summary of the method: as §1

OR6C76 (Homo sapiens) = biological target: T12, OR6C76 (Homo sapiens) (UniProt A6NM76)
T12 sequence (whole entry): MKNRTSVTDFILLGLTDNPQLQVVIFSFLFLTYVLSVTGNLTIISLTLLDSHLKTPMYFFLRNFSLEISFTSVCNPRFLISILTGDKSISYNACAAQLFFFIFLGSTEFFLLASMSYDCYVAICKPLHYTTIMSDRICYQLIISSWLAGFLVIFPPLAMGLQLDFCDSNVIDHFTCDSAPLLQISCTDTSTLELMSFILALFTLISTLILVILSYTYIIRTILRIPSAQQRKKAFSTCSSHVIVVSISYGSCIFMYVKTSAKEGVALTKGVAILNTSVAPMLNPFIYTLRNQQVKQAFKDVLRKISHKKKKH
Summary of the method: as §1

OR6F1 (Homo sapiens) = biological target: T13, OR6F1 (Homo sapiens) (UniProt Q8NGZ6)
T13 sequence (whole entry): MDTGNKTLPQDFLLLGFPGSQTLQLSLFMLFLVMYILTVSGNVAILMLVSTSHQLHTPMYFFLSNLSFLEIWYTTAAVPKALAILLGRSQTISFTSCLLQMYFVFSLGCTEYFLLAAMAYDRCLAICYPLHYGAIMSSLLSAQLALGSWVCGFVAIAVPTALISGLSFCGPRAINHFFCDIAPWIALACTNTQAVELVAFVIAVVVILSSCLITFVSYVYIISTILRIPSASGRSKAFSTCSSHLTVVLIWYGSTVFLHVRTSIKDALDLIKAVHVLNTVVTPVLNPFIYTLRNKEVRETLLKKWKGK
Summary of the method: as §1

Measured: odorant receptor agonist call

CC1CCC(C(C)C)C(O)C1 (stereo unspecified)
active: OR6C65 (Homo sapiens) | OR6C75 (Homo sapiens)
inactive: all other assays above

CCCCCCCCCCC=O
inactive: all assays above

c1cnccn1
inactive: all assays above

Ordered by SMILES length (ascending): 3 of the compounds above
c1cnccn1
inactive: all assays above

CCCCCCCCCCC=O
inactive: all assays above

CC1CCC(C(C)C)C(O)C1 (stereo unspecified)
active: OR6C65 (Homo sapiens) | OR6C75 (Homo sapiens)
inactive: all other assays above

Remaining list, next part.

CCCCCC(C)=O
inactive: all assays above

COc1cc(C)ccc1O
inactive: all assays above

C=CCSCC=C
inactive: all assays above

O=C1CCCCCCCCCCCC(=O)OCCO1
inactive: all assays above

CC(=O)OC1CC2CCC1(C)C2(C)C (stereo unspecified)
inactive: all assays above

CC(C)CC(=O)O
inactive: all assays above

CC(=O)OCC=C(C)CCC=C(C)C
inactive: all assays above

CC12CCC(C1)C(C)(C)C2=O (stereo unspecified)
inactive: all assays above

CCCCCCCC=CC=O
active: OR6F1 (Homo sapiens)
inactive: all other assays above
